Data published in PMC7566517.
These are yes or no findings as the source states them, for the method shown. Where a sequence is shown, tags or fusion partners need not be part of it.

Target: NRG1-MFc fusion protein (NRG1 EGF domain fused with monomeric Fc) (human) (UniProt Q02297)
Assay: SEC-MALS; analytical SEC-MALS after single-step protein A purification; both purified

B1: NRG1-MFc fusion protein (NRG1 EGF domain fused with monomeric Fc) (Fc fusion, UniProt Q02297-6 175-229)
chain: GTSHLVKCAEKEKTFCVNGGECFMVKDLSNPSRYLCKCPNEFTGDRCQNYVMASF
B1 was tested, and the binding was “no binding”.
